Reference: paper doi:10.1101/2020.11.10.376780
These are yes or no findings as the source states them, for the method shown. In cells and extracts the contact can be indirect. Some entries that bind do so weakly or less than the wild type.

Sequences of proteins named here, by UniProt entry; tags and fusion partners are left off. A change or cut given only in a name is not applied to a line headed by its entry.
UniProt O75533, whole entry, looked up, stated change not applied: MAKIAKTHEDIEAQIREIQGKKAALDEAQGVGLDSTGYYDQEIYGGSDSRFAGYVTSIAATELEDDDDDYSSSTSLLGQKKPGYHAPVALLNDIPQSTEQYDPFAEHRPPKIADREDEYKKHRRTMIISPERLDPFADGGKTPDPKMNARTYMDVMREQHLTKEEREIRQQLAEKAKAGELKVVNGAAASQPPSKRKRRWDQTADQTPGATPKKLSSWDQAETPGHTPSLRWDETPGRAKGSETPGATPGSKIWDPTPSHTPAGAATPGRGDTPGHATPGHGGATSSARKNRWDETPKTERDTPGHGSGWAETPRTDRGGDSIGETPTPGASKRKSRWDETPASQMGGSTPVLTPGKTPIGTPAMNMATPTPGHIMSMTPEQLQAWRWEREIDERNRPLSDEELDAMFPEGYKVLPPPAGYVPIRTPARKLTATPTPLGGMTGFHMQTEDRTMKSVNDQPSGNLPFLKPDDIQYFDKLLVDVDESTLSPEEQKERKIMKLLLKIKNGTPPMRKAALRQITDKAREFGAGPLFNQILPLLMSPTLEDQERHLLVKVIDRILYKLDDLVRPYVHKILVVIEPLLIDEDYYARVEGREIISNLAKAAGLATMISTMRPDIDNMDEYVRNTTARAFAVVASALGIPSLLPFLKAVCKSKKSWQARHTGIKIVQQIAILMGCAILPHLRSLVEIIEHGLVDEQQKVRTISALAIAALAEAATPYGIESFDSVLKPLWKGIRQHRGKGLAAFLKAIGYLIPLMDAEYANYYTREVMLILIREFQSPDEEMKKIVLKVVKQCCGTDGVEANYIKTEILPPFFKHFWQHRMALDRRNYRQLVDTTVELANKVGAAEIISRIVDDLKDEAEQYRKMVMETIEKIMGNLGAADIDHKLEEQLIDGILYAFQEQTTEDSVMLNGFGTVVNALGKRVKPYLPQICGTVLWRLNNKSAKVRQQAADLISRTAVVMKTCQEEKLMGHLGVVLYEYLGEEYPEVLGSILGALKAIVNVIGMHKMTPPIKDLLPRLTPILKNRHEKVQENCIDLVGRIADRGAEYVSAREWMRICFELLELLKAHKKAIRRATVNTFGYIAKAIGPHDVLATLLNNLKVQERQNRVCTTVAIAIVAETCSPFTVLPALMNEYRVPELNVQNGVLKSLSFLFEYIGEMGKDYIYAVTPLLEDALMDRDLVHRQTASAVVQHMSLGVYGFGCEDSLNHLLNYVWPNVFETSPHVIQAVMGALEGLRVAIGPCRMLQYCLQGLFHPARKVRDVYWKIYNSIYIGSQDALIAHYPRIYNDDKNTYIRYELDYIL
UniProt Q16665, whole entry: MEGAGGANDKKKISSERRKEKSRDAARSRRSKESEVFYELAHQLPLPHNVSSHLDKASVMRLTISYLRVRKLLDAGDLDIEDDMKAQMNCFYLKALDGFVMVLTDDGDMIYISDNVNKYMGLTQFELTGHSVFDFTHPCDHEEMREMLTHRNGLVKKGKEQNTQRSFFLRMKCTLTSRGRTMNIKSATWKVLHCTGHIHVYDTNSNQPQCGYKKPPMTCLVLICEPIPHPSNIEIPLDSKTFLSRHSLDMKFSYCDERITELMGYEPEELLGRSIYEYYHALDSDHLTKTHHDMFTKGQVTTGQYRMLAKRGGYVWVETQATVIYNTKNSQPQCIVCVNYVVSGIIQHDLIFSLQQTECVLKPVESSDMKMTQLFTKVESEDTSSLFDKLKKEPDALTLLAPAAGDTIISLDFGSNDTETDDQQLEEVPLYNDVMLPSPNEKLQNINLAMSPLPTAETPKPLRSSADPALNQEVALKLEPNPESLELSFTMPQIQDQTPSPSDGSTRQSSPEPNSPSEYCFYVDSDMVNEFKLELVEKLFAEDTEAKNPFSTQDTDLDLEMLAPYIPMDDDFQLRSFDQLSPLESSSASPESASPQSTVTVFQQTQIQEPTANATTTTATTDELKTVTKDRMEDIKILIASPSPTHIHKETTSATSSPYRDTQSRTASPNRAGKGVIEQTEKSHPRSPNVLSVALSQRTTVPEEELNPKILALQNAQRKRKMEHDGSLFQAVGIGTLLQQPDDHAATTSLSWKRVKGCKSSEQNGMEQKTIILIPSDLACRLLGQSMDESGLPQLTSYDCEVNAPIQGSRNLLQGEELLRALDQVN

Target: FLAG-tagged SF3B1 K700E (UniProt O75533)
Test: co-IP

HA-tagged WT full length (FL) HIF1α (from UniProt Q16665 1-826)
binding: binds
